Source: the supplement of paper PMC12823440, “Inhibitors supercharge kinase turnover through native proteolytic circuits” (Nature, 2025)
Structures can show the parent of a compound that is named as a salt. Some of the results follow. Hit calls seldom repeat between salt and free forms of one compound.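 Kinases were expressed as nanoluciferase fusions in K562 cells and luminescence was read every 4 h between 2 and 18 h as percent of control, DMSO set to 100% and a positive control to 0%. A time point counts as decreased when the signal drops significantly (2 sigma). The hit call is the authors' own, does not follow from the count of time points alone, and its rule is not shown.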

By UniProt entry, the sequences of proteins in these tests, tags left out. Where a name states a change or a piece, a line headed by the entry shows the natural chain unless it says otherwise.
UniProt P00519, whole entry: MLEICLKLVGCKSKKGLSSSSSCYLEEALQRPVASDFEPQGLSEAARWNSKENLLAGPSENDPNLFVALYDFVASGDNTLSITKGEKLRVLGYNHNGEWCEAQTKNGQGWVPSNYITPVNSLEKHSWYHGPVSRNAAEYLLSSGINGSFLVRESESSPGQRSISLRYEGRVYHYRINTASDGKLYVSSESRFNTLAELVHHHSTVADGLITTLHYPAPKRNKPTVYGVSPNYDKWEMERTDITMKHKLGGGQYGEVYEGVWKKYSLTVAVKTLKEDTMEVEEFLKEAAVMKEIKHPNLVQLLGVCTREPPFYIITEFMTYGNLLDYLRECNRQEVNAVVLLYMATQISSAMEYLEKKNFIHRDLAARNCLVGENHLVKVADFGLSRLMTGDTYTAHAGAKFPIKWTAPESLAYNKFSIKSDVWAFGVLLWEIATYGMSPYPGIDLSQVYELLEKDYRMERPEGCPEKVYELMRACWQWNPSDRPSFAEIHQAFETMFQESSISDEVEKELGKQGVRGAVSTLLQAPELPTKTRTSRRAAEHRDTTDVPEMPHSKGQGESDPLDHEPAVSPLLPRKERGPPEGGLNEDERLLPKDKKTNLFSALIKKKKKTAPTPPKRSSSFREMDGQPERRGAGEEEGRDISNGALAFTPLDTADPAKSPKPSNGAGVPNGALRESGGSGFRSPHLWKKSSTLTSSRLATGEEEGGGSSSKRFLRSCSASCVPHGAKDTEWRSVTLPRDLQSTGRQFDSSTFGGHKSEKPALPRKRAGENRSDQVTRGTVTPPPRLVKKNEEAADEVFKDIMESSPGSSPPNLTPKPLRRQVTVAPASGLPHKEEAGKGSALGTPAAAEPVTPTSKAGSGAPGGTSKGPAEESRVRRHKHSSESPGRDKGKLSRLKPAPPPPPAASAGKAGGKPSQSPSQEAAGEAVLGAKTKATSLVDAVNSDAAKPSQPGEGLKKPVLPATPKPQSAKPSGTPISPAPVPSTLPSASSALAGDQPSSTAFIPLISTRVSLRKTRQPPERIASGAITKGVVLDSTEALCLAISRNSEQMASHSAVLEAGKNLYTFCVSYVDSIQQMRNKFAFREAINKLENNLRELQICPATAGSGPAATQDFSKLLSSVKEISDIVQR
UniProt P31749: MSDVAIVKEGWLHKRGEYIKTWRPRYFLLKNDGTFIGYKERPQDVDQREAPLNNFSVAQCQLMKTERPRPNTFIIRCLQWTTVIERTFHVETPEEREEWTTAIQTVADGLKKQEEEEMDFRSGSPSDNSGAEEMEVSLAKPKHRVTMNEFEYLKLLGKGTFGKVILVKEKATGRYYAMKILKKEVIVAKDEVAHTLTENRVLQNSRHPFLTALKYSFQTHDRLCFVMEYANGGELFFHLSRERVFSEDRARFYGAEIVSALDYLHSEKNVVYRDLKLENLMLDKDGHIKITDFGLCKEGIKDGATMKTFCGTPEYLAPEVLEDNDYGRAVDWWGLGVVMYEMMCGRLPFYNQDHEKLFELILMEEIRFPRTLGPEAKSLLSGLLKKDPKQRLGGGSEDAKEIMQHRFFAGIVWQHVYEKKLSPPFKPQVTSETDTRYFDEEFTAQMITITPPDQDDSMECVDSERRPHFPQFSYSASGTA
UniProt P10398: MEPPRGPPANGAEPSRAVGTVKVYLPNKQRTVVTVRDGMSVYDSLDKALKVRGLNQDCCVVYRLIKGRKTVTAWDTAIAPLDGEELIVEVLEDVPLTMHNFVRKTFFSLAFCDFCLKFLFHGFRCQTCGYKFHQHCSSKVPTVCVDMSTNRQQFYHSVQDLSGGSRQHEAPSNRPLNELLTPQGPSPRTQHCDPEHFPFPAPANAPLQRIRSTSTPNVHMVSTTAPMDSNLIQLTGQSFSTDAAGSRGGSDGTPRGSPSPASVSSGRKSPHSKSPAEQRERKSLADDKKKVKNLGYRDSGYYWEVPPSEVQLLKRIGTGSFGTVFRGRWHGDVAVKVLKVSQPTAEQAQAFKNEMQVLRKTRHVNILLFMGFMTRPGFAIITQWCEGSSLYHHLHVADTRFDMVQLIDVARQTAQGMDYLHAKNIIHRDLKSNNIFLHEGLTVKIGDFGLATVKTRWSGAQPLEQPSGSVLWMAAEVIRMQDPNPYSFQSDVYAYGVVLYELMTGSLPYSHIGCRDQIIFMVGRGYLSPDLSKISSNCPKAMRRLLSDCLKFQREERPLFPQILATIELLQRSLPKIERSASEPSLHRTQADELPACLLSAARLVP
UniProt O14965: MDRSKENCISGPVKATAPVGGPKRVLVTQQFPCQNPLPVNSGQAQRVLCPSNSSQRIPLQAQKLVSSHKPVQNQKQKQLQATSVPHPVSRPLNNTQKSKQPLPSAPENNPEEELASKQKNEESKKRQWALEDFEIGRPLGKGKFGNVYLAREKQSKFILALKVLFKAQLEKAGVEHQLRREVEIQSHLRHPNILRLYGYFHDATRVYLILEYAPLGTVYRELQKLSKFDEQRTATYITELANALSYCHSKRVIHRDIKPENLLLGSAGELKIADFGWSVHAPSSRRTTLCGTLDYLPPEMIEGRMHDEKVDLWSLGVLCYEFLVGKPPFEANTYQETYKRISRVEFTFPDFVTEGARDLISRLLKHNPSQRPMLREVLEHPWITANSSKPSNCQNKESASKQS
UniProt Q96GD4, whole entry: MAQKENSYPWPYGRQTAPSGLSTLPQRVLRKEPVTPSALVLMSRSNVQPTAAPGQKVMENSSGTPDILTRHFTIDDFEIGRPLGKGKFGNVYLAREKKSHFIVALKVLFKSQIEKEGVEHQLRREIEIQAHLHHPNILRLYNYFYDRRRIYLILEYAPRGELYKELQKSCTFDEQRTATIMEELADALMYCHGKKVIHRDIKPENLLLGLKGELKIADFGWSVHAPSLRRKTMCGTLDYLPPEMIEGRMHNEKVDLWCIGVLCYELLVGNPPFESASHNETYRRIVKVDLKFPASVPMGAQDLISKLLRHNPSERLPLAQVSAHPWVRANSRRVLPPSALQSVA
UniProt Q9UQB9: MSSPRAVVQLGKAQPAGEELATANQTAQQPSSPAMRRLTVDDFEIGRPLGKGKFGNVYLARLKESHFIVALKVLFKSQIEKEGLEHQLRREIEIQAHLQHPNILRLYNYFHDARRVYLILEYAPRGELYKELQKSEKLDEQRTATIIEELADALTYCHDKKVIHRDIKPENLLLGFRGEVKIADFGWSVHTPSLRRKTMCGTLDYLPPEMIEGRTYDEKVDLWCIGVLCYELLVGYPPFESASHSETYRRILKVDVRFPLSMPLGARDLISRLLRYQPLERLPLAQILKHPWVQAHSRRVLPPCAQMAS
UniProt P51451: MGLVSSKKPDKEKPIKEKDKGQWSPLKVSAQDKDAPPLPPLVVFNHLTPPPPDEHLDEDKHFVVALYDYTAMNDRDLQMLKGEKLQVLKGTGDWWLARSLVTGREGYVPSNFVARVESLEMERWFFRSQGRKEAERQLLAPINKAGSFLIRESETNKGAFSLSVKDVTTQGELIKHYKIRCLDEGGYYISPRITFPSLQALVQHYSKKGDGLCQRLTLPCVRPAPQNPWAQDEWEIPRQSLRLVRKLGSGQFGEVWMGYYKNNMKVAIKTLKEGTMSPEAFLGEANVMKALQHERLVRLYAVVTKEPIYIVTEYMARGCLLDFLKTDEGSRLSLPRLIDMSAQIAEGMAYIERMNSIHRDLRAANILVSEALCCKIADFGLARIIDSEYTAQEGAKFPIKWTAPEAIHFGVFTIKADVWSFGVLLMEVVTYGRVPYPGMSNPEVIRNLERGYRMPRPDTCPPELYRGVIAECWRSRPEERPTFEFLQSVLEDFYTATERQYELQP
UniProt P51813: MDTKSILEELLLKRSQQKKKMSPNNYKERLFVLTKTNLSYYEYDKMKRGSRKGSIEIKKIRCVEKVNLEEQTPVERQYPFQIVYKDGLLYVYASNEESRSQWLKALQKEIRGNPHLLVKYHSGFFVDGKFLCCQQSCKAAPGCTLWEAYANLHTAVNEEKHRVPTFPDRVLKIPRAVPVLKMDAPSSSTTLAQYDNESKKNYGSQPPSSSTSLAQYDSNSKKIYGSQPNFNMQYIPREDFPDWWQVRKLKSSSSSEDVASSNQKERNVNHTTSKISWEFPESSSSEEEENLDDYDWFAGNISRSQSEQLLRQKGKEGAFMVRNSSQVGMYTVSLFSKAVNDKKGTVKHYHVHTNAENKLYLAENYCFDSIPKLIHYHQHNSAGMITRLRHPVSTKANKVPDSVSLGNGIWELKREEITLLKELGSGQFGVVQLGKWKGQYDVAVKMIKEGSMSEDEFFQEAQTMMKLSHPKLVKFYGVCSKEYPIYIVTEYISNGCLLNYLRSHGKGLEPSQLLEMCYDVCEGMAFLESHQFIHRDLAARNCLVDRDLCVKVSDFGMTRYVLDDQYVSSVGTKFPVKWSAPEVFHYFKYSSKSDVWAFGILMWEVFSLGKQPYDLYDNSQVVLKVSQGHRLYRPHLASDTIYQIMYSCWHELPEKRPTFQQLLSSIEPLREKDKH
UniProt P15056, whole entry, looked up: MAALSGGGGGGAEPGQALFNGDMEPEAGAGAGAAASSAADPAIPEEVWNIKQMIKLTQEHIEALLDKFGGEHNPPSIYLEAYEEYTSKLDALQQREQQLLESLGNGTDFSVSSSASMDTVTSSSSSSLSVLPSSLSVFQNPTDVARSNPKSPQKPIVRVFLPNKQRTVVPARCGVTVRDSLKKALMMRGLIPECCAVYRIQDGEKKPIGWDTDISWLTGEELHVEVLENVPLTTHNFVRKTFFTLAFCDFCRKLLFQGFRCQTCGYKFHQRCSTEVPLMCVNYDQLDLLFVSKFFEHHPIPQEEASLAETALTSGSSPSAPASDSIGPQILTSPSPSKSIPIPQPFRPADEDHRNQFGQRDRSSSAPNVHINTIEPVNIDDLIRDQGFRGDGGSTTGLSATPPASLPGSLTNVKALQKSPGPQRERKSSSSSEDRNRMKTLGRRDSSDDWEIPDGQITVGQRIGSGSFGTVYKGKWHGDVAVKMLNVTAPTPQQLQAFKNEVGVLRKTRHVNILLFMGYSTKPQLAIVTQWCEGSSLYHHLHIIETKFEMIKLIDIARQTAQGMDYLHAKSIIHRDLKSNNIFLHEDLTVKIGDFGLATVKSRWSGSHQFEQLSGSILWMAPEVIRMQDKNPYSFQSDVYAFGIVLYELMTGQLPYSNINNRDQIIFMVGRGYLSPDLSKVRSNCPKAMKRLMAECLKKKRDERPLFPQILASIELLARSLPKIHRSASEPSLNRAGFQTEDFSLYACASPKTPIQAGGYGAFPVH

Legend:
Assay in all cases: kinase-Nluc reporter destabilization hit call (1 = scored as downregulated) (binary); higher = compound decreases kinase abundance
Conditions in all cases: K562; 2-18 h
ABL1 = ABL1 (UniProt P00519)
AKT1 = AKT1 (UniProt P31749)
ALK = ALK (UniProt Q9UM73)
ARAF = ARAF (UniProt P10398)
AURKA = AURKA (UniProt O14965)
AURKB = AURKB (UniProt Q96GD4)
AURKC = AURKC (UniProt Q9UQB9)
BLK = BLK (UniProt P51451)
BMX = BMX (UniProt P51813)
BRAF = BRAF (UniProt P15056)

Measured: kinase-Nluc reporter destabilization hit call

Cc1ccc(-n2nc(C(C)(C)C)cc2NC(=O)Nc2ccc(OCCN3CCOCC3)cc2)cc1 (10 µM)
inactive: ABL1 = 0 | AKT1 = 0 | ALK 0 | ARAF 0 | AURKA 0 | AURKB 0 | AURKC 0 | BLK 0 | BMX 0 | BRAF 0

O=C(O)c1ccc(/C=C/S(=O)(=O)Cc2ccc(Cl)cc2)cc1 [Recilisib] (10 µM)
inactive: ABL1 = 0 | AKT1 = 0 | ALK 0 | ARAF 0 | AURKA 0 | AURKB 0 | AURKC 0 | BLK 0 | BMX 0 | BRAF 0

C=CC(=O)Nc1ccc(C(=O)Nc2[nH]nc3c2CN(C(=O)N[C@H](CN(C)C)c2ccccc2)C3(C)C)cc1 (10 µM)
inactive: ABL1 = 0 | AKT1 = 0 | ALK 0 | ARAF 0 | AURKA 0 | AURKB 0 | AURKC 0 | BLK 0 | BMX 0 | BRAF 0

C=CC(=O)Nc1cc(Nc2nccc(-c3cn(C)c4ccccc34)n2)c(OC)cc1N(C)CCNC [AZ7550 Mesylate] (2.5 µM)
inactive: ABL1 = 0 | AKT1 = 0 | ALK 0 | ARAF 0 | AURKA 0 | AURKB 0 | AURKC 0 | BLK 0 | BMX 0 | BRAF 0

c1nn(C2CCOCC2)cc1Nc1ncc2nnn(-c3ccc4cn[nH]c4c3)c2n1 (10 µM)
inactive: ABL1 = 0 | AKT1 = 0 | ALK 0 | ARAF 0 | AURKA 0 | AURKB 0 | AURKC 0 | BLK 0 | BMX 0 | BRAF 0

Nc1nc2c(nc(Br)n2[C@@H]2O[C@@H]3COP(=O)(O)O[C@H]3[C@H]2O)c(=O)[nH]1 [8-Bromo-cGMP (sodium)] (10 µM)
inactive: ABL1 = 0 | AKT1 = 0 | ALK 0 | ARAF 0 | AURKA 0 | AURKB 0 | AURKC 0 | BLK 0 | BMX 0 | BRAF 0

CCCCCC(=O)N[C@@H](Cc1ccc(O)cc1)C(=O)OC (10 µM)
inactive: ABL1 = 0 | AKT1 = 0 | ALK 0 | ARAF 0 | AURKA 0 | AURKB 0 | AURKC 0 | BLK 0 | BMX 0 | BRAF 0

O=C1Nc2ccc(I)cc2/C1=C/c1cc(Br)c(O)c(Br)c1 (10 µM)
inactive: ABL1 = 0 | AKT1 = 0 | ALK 0 | ARAF 0 | AURKA 0 | AURKB 0 | AURKC 0 | BLK 0 | BMX 0
active: BRAF 1

COc1cc2ncnc(Nc3cccc(I)c3)c2cc1OC (2.5 µM)
inactive: ABL1 = 0 | AKT1 = 0 | ALK 0 | ARAF 0 | AURKA 0 | AURKB 0 | AURKC 0 | BLK 0 | BMX 0 | BRAF 0

COc1cc(N2CCOCC2)ccc1Nc1ncc(F)c(Nc2ccccc2NS(C)(=O)=O)n1 (10 µM)
inactive: ABL1 = 0 | AKT1 = 0 | ALK 0 | ARAF 0 | AURKA 0 | AURKB 0 | AURKC 0 | BLK 0 | BMX 0 | BRAF 0

Nothing new here: 2 of the compounds above.
C=CC(=O)Nc1cc(Nc2nccc(-c3cn(C)c4ccccc34)n2)c(OC)cc1N(C)CCNC [AZ7550 Mesylate] (2.5 µM)
inactive: ABL1 = 0 | AKT1 = 0 | ALK 0 | ARAF 0 | AURKA 0 | AURKB 0 | AURKC 0 | BLK 0 | BMX 0 | BRAF 0

c1nn(C2CCOCC2)cc1Nc1ncc2nnn(-c3ccc4cn[nH]c4c3)c2n1 (10 µM)
inactive: ABL1 = 0 | AKT1 = 0 | ALK 0 | ARAF 0 | AURKA 0 | AURKB 0 | AURKC 0 | BLK 0 | BMX 0 | BRAF 0

(listing goes on)

CC(C)CCN1c2nc(Nc3cc(F)c(O)c(F)c3)ncc2N(C)C(=O)C1C (stereo not given) (2.5 µM)
inactive: ABL1 = 0 | AKT1 = 0 | ALK 0 | ARAF 0 | AURKA 0 | AURKB 0 | AURKC 0 | BLK 0 | BMX 0 | BRAF 0

Cc1c(Cl)cccc1S(=O)(=O)Nc1nc(NCCc2ccccc2)nc2c1CN(Cc1ccccc1)CC2 (2.5 µM)
inactive: ABL1 = 0 | AKT1 = 0 | ALK 0 | ARAF 0 | AURKA 0 | AURKB 0 | AURKC 0 | BLK 0 | BMX 0 | BRAF 0

C[C@@H](Nc1ncnc2[nH]c(-c3ccc(O)cc3)cc12)c1ccccc1 (2.5 µM)
inactive: ABL1 = 0 | AKT1 = 0 | ALK 0 | ARAF 0 | AURKA 0 | AURKB 0 | AURKC 0 | BLK 0 | BMX 0 | BRAF 0

Nc1ncc(C(=O)NC2CN(C(=O)C3CC3)C2)c2ccc(-c3cccc(F)c3)nc12 (2 µM)
inactive: ABL1 = 0 | AKT1 = 0 | ALK 0 | ARAF 0 | AURKA 0 | AURKB 0 | AURKC 0 | BLK 0 | BMX 0 | BRAF 0

O=C1CC[C@H](NC(=O)Cc2ccccc2)C(=O)N1 [Antineoplaston A10] (10 µM)
inactive: ABL1 = 0 | AKT1 = 0 | ALK 0 | ARAF 0 | AURKA 0 | AURKB 0 | AURKC 0 | BLK 0 | BMX 0 | BRAF 0

COC(=O)Nc1ccc(-c2nc(N3CCOCC3)c3cnn(C4CCN(Cc5cccnc5)CC4)c3n2)cc1 (10 µM)
inactive: ABL1 = 0 | AKT1 = 0 | ALK 0 | ARAF 0 | AURKA 0 | AURKB 0 | AURKC 0 | BLK 0 | BMX 0 | BRAF 0

Cc1cc(Nc2cc(N3CCN(C)CC3)nc(Nc3ccc([N+](=O)[O-])cc3)n2)n[nH]1 (2.5 µM)
inactive: ABL1 = 0 | AKT1 = 0 | ALK 0 | ARAF 0 | AURKA 0 | AURKB 0 | AURKC 0 | BLK 0 | BMX 0 | BRAF 0

Clc1ccc(C(c2ccc(Cl)cc2)[n+]2ccn(CC(OCc3ccc(Cl)cc3Cl)c3ccc(Cl)cc3Cl)c2)cc1 (stereo not given) [Calmidazolium chloride] (2.5 µM)
inactive: ABL1 = 0 | AKT1 = 0 | ALK 0 | ARAF 0 | AURKA 0 | AURKB 0 | AURKC 0 | BLK 0 | BMX 0 | BRAF 0

Cc1c(C)c(NCC(=O)N(C)C2CCN(Cc3ccc(C(N)=O)cc3)CC2)c(C)c(C)c1N (10 µM)
inactive: ABL1 = 0 | AKT1 = 0 | ALK 0 | ARAF 0 | AURKA 0 | AURKB 0 | AURKC 0 | BLK 0 | BMX 0 | BRAF 0

N#Cc1cnc2c(Cl)cc(NCc3cn(CCN4CCCCCC4)nn3)cc2c1Nc1ccc(F)c(Cl)c1 [Cot inhibitor-1] (10 µM)
inactive: ABL1 = 0 | AKT1 = 0 | ALK 0 | ARAF 0 | AURKA 0 | AURKB 0 | AURKC 0 | BLK 0 | BMX 0 | BRAF 0

O=Nc1c(-c2c(O)[nH]c3cc(Br)ccc23)[nH]c2ccccc12 [GSK 3 Inhibitor IX] (2.5 µM)
inactive: ABL1 = 0 | AKT1 = 0 | ALK 0 | ARAF 0 | AURKA 0 | AURKB 0 | AURKC 0 | BLK 0 | BMX 0 | BRAF 0

CCC(=O)Nc1cccc(Oc2nc(Nc3ccc(N4CCN(C)CC4)cc3OC)ncc2Cl)c1 (10 µM)
inactive: ABL1 = 0 | AKT1 = 0 | ALK 0 | ARAF 0 | AURKA 0 | AURKB 0 | AURKC 0 | BLK 0 | BMX 0 | BRAF 0

Cc1c(C(=O)Nc2ccc(Oc3ccnc4[nH]cc(-c5ccccc5)c34)c(F)c2)c(=O)n(-c2ccc(F)cc2)n1C (10 µM)
inactive: ABL1 = 0 | AKT1 = 0 | ALK 0 | ARAF 0 | AURKA 0 | AURKB 0 | AURKC 0 | BLK 0 | BMX 0 | BRAF 0

NCCOc1ccc(Cl)cc1C(=O)Nc1ccc([N+](=O)[O-])cc1Cl [HJC0152 hydrochloride] (2 µM)
inactive: ABL1 = 0 | AKT1 = 0 | ALK 0 | ARAF 0 | AURKA 0 | AURKB 0 | AURKC 0 | BLK 0 | BMX 0 | BRAF 0

CCN(CC)CCCC(C)Nc1nc(C)cc(Nc2ccc3nc(C)cc(N)c3c2)n1 (stereo not given) (10 µM)
inactive: ABL1 = 0 | AKT1 = 0 | ALK 0 | ARAF 0 | AURKA 0 | AURKB 0 | AURKC 0 | BLK 0 | BMX 0 | BRAF 0

CNC(=O)c1ccc2c(c1)ncn2-c1ccc(CC(=O)OC(C)(C)C)cc1 (10 µM)
inactive: ABL1 = 0 | AKT1 = 0 | ALK 0 | ARAF 0 | AURKA 0 | AURKB 0 | AURKC 0 | BLK 0 | BMX 0 | BRAF 0

Nc1[nH]nc2nc(-c3ccc(NS(=O)(=O)c4cc(Cl)ccc4Cl)cc3)cnc12 (10 µM)
inactive: ABL1 = 0 | AKT1 = 0 | ALK 0 | ARAF 0 | AURKA 0 | AURKB 0 | AURKC 0 | BLK 0 | BMX 0 | BRAF 0

CC1CN(CC2CCN(Cc3ccccc3)CC2)C(=O)N(c2cccc(C(=N)N)c2)C1 (stereo not given) (10 µM)
inactive: ABL1 = 0 | AKT1 = 0 | ALK 0 | ARAF 0 | AURKA 0 | AURKB 0 | AURKC 0 | BLK 0 | BMX 0 | BRAF 0

Nc1nc(NCCNc2ncc(-n3ccnc3)c(-c3ccc(Cl)cc3Cl)n2)ccc1[N+](=O)[O-] (2.5 µM)
inactive: ABL1 = 0 | AKT1 = 0 | ALK 0 | ARAF 0 | AURKA 0 | AURKB 0 | AURKC 0 | BLK 0 | BMX 0 | BRAF 0
